Measured values published in article PMC6472371.
Results are given in words; binding and its absence hold for the method and conditions named. Binding seen in cells or lysates may run through a third protein. Some results given as binding are weak or reduced against the parent protein; the word gives no strength.

Sequences of proteins named here, by UniProt entry; tags and fusion partners are left off.
UniProt Q9H8M2: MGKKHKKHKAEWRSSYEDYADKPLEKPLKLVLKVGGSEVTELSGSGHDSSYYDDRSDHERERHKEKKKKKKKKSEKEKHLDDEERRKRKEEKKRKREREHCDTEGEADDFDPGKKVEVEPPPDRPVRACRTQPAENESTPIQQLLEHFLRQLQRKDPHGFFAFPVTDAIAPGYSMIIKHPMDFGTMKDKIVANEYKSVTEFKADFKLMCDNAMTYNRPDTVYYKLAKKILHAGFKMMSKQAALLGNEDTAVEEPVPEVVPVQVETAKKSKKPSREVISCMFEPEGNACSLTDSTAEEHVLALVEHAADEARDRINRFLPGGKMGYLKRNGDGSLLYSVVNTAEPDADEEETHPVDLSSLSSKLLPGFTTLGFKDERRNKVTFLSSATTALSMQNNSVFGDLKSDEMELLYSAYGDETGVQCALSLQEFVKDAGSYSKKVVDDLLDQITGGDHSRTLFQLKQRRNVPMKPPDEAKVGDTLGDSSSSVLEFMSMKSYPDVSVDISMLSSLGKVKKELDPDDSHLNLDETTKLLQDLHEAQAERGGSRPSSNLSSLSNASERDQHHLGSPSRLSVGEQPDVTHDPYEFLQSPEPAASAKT
UniProt P51532: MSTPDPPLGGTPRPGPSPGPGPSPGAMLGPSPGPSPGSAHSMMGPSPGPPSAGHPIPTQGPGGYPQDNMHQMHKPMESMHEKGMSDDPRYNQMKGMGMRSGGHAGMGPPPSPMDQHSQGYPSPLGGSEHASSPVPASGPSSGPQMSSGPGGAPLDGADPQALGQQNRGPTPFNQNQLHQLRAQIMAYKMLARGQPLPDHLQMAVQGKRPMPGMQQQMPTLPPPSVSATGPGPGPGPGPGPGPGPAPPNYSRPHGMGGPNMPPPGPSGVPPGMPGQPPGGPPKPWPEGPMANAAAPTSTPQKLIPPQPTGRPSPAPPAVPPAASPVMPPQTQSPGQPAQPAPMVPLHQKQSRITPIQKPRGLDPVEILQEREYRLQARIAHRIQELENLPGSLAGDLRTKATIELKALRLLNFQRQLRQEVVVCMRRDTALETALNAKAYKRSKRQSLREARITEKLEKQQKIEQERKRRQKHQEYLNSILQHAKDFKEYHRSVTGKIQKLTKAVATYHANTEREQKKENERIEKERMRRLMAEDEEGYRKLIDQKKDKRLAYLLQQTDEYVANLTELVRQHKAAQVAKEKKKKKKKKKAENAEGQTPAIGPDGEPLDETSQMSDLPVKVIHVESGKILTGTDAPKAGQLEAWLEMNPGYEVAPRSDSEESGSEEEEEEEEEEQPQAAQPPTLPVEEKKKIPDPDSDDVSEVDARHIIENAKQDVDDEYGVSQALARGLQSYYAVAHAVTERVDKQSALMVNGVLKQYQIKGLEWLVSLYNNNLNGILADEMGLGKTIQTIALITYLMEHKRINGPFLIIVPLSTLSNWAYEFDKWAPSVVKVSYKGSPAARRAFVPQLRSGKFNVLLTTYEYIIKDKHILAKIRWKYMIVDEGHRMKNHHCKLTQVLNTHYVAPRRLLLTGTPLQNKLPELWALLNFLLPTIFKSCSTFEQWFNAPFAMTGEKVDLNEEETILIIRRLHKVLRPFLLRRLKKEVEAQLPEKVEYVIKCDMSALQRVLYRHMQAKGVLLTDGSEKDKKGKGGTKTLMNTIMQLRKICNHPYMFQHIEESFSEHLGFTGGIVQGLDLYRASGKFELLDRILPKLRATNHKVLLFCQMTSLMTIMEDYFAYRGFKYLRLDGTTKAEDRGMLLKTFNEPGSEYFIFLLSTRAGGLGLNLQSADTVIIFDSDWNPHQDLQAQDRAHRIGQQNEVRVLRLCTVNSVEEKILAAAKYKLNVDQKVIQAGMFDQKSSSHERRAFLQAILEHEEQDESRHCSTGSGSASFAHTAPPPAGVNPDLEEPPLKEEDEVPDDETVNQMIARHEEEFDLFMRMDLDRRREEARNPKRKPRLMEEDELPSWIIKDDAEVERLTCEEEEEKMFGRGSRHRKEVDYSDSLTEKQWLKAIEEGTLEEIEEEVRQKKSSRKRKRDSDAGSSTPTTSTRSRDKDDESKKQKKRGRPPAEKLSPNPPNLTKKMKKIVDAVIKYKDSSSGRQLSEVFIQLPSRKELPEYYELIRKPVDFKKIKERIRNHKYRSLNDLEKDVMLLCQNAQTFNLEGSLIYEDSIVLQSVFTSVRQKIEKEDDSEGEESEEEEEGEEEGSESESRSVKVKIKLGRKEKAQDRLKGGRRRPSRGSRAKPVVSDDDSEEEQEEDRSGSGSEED

Target: GFP-BRD9 expressed in U937 cells (UniProt Q9H8M2)
Test: pull-down; GFP pull-down assay of U937 cells expressing GFP-BRD9, followed by western blotting; performed as previously described (ref. 32)

Substance: SMARCA4 (endogenous, U937) (from UniProt P51532 1-1647)
- binding: binds
